Reference: patent US20080064643A1 (priority 2004, published 2008)

Test: general procedure: Fmoc solid-phase peptide synthesis; Rink Amide MBHA; HOBt-TBTU, DIPEA; acyl chloride (SOCl2) for difficult acylations
Settings: whole synthesis, scale ~50 μmol

Substance | isolated mass
Ac-Arg-Asp-AzaLeu-Val-Pro-Gly-NH2 (LVPG; Ac-Arg-Asp-Aza N-terminal; C-terminal amide; printed: Leu-Val-Pro-Gly-) | 12.00 mg
Ac-Arg-Asp-Azagly-Val-Pro-Gly-NH2 | 18.2 mg
Ac-Arg-Asp-Val-AzaVal-Pro-Gly-NH2 | 11.7 mg
H-Arg-Gly-AzaVal-Val-Pro-Gly-NH2 (VVPG; H-Arg-Gly-Aza N-terminal; C-terminal amide; printed: Val-Val-Pro-Gly-) | 4.9 mg

Test: general procedure: Fmoc solid-phase peptide synthesis; Rink amide MBHA; HOBt-TBTU, DIPEA; acyl chloride (SOCl2) for difficult acylations
Settings: whole synthesis, scale ~50 μmol

Substance | isolated mass
Ac-Gly-Pro-SP30-Arg-NH2 | 19.0 mg
PAM9-Asp-Val-Val-Beta2-NH2 | 19.0 mg
PAM9-SP02-Beta2-Thr-NH2 | 9.1 mg
